Measurements reported in patent US20250276077A1, “EPHA2 ANTIBODIES” (Immunome, Inc., priority 2022, published 2025).
Results are given in words; binding and its absence hold for the method and conditions named. Some results given as binding are weak or reduced against the parent protein; the word gives no strength.

Amino acid sequences for entries named in this document (tags omitted). A change or cut given only in a name is not applied to a line headed by its entry. Residues count along the entry.
UniProt P29317: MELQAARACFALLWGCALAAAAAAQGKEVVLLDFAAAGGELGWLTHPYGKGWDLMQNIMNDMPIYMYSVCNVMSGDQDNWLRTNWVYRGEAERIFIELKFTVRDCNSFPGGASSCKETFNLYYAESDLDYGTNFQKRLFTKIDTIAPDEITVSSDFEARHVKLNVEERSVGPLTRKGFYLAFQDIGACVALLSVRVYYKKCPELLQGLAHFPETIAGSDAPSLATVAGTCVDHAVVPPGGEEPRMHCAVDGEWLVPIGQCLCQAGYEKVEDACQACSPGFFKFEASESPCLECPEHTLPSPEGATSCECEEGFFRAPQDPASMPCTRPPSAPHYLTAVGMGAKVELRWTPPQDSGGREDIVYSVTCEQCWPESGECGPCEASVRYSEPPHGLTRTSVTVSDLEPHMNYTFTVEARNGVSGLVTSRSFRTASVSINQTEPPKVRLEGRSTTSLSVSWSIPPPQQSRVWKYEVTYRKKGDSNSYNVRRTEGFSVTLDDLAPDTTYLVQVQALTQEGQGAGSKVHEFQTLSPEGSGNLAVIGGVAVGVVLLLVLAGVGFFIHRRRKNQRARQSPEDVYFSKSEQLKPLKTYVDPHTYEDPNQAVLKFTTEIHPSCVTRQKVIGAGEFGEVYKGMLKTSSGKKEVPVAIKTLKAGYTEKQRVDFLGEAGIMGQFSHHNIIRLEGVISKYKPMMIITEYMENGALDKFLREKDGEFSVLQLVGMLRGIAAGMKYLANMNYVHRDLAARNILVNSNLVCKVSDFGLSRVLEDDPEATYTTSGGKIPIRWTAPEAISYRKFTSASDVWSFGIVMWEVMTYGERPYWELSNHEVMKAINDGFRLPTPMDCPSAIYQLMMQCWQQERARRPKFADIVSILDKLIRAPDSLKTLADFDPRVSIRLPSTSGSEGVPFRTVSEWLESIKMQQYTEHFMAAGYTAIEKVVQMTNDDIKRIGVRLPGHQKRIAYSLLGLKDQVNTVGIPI
UniProt P20827, residues 19-182: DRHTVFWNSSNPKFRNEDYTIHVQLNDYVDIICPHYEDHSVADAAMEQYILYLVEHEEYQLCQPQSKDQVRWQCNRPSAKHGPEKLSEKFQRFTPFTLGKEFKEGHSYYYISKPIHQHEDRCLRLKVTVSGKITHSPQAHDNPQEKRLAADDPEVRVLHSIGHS

What was measured:
[1] = molecular target: Extracellular domain of human EphA2 (25-534) with a C-terminal HIS tag (R&D Systems, 3035-A2) (human) (UniProt P29317); test: BLI in-tandem binning matrix, EphA2 ECD-His; competitor: 8873-2
[2] = molecular target: Extracellular domain of human EphA2 (25-534) with a C-terminal HIS tag (R&D Systems, 3035-A2) (human) (UniProt P29317); test: BLI in-tandem binning matrix, EphA2 ECD-His; competitor: 10018-01

binding [1]: binds | binding [2]: binds
Substance: EphrinA1 fused to Fc (Acro, EF1-H5251) (from UniProt P20827 19-182) (Fc fusion)
